Consider 38 molecules from PubChem BioAssay AID2685 (National Center for Advancing Translational Sciences (NCATS), 2010).

A short description of this experiment: qHTS Assay for Lipid Storage Modulators in Drosophila S3 Cells.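 As to cell number change: cells counted by Cell Tracker Red CMTPX staining in the red channel.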 Conditions: BODIPY lipid droplet fluorescence, 18-24 h; for cell number change: measured here: cell count max response, cells fed with added oleic acid. In outline: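 Drosophila S3 cells loaded with oleic acid (400 uM, as added) and compounds at several concentrations; lipid droplets imaged by 488-nm laser-scanning cytometry, 500–530 nm intensity and object ratio to cell channel. Percent activity normalized to 20 uM Triacsin C.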

Where [1] appears, read: measured here: lipid fluorescence (Fed channel) AC50, cells fed with added oleic acid.
[2] abbreviates: measured here: cell number channel AC50, cells fed with added oleic acid.

Structures are written as SMILES. Some of the results follow. These are further read-outs of the screen, such as a control signal, another cell line or another target. No call is given for them. The list favours compounds with an active or inconclusive main result. Potencies come from curve fits of mixed quality, noted in brackets.

Consider `O=C(CCOc1ccccc1)Nc1ccnn1C1CCN(Cc2ccccc2)CC1`, for which the cell number change was -14.4%. For the same molecule, the AC50 under setting [1] was 29.1 µM [falling, single point].
Consider `Cc1nc2ccc(NC(=O)COc3ccccc3)cc2s1`, for which the cell number change is -3.79%.
As for `COC(=O)c1cn(NC(=O)c2ccc(OC)c(OC)c2)c(=O)c2ccccc12`, the AC50 under setting [2] was 0.58 µM [rising, single point].
Consider `COc1ccccc1NC(=O)c1sc2ncn(Cc3ccccc3C)c(=O)c2c1C`, for which the cell number change is 14.1%. The AC50 under setting [1] was 25.9 µM [rising, single point].
As for `O=C(COc1ccc(S(=O)(=O)NC2CCCC2)cc1)N1CCCCCC1`, the cell number change is 113%. In addition, the AC50 under setting [2] was 25.9 µM [rising, single point]. Moreover, the half-maximal activity concentration (AC50) under setting [1] is 29.1 µM [rising, single point].
In the case of `CCCN1Cc2cccc(C(=O)N3CCN(c4ccccc4)CC3)c2C1=O`, the cell number change is -20%. Further, the AC50 under setting [2] was 1.16 µM [falling, partial curve, poor fit]. Under setting [1], the AC50 was 1.46 µM [falling, partial curve].
Regarding `COc1ccc(N/C=C2/Sc3ccccc3NC2=O)cc1`, under setting [1], the AC50 is 0.731 µM [rising, single point].
As to `O=S(=O)(c1ccc2c(c1)C(O)c1ccccc1CC2)C(F)(F)F` (configuration not stated), the cell number change was -29.1%. The AC50 under setting [2] is 3.26 µM [falling, full curve, poor fit]. Also, the AC50 under setting [1] was 18.4 µM [falling, partial curve].
For `COc1cnc(-c2ccccn2)nc1Sc1ccc(C)cc1`, the cell number change is -2.17%.
In the case of `CCOC(=O)c1c(C)[nH]c(C(=O)COC(=O)CNC(=O)c2ccc(Cl)cc2Cl)c1C`, the cell number change is -39%. Besides, the AC50 under setting [1] is 4.61 µM [falling, full curve, poor fit].
In the case of `CSc1nc2sc3c(c2c(=O)n1C1CCCCC1)CCN(C)C3`, the cell number change was -87%. Further, under setting [2], the AC50 was 13 µM [falling, partial curve]. For the same molecule, under setting [1], the AC50 is 14.6 µM [falling, partial curve].
For `Cc1cc(C)n(-c2nc3ccccc3nc2N2CCN(C(=O)c3ccccc3)CC2)n1`, the cell number change amounted to 2.02%. Under setting [1], the AC50 was 0.326 µM [rising, full curve, poor fit].
As to `O=C(Nc1cc(C(F)(F)F)ccc1N1CCOCC1)c1ccc2ccccc2n1`, the cell number change is -5.92%. For the same molecule, the concentration at half-maximal activity (AC50) under setting [1] was 0.184 µM [rising, full curve, poor fit].
Consider `NC(=O)c1c(N)sc(=S)n1CC1CCCO1` (configuration not stated), for which the cell number change stood at 5.64%. Besides, the AC50 under setting [1] was 0.146 µM [rising, full curve].
As to `Cc1cc(C(=O)N/N=C2/CC(C)CC(C)(C)C2)c(C)o1` (configuration not stated), the cell number change was -12.1%. Also, the AC50 under setting [2] is 0.731 µM [falling, full curve, poor fit]. The AC50 under setting [1] was 0.731 µM [falling, full curve].
Consider `NC(N)=N/N=C/c1ccc(Cl)c(Cl)c1`, for which the AC50 under setting [1] is 0.146 µM [falling, full curve, poor fit].
Consider `O=c1c2[nH]c3cccc(Cl)c3c2ncn1CC1CCCO1` (configuration not stated), for which the cell number change was found to be 6.51%. Besides, the AC50 under setting [1] was 2.91 µM [rising, partial curve].
Consider `CCCN(CCC)CCNC(=O)c1cc2c(-c3ccccc3F)nn(C)c2s1`, for which the cell number change is -2.01%.
On to `CCC(C)NC(=O)CC(NS(=O)(=O)c1ccc(C)cc1)c1ccc(OC)cc1` (configuration not stated), for which the cell number change was -8.64%. The AC50 under setting [1] is 2.06 µM [rising, partial curve, poor fit].
In the case of `COc1cc(CNCCO)cc(Br)c1OCc1ccccc1Cl`, the cell number change is -37.5%. In addition, the AC50 under setting [2] is 3.66 µM [falling, single point]. Also, the AC50 under setting [1] is 25.9 µM [falling, single point].
For the molecule `Cc1ccc(S(=O)(=O)C(CNC(=O)C(C)C)c2cccs2)cc1` (configuration not stated), the cell number change turned out to be 14.1%.
`CCOC(=O)C1CN(S(=O)(=O)c2ccccc2)c2cc(S(=O)(=O)CC)ccc2O1` (configuration not stated): the cell number change came out at 0.377%. For the same molecule, the half-maximal activity concentration (AC50) under setting [1] is 7.31 µM [falling, partial curve].
Consider `CSC1=NCCN1C(=O)c1ccc2ccccc2c1`, for which the AC50 is, setting by setting: under setting [2], 0.116 µM [rising, partial curve]; under setting [1], 0.092 µM [rising, single point].
For `O=c1c2cc(N3CCOCC3)ccc2[nH]c(=S)n1CCCN1CCN(c2ccccc2F)CC1`, the cell number change was 9.53%. For the same molecule, under setting [1], the AC50 is 2.31 µM [rising, partial curve].
For the molecule `CC(=O)NCC(=O)NC(C(=O)Nc1ccc2c(c1)OCCO2)c1ccccc1` (configuration not stated), the cell number change was -12.3%. The AC50 under setting [1] was 1.16 µM [falling, full curve].
Consider `CCOC(=O)N1CCc2c(sc(NC(=O)C3=COCCO3)c2C(N)=O)C1`, for which the cell number change was -51.9%. Moreover, under setting [2], the half-maximal activity concentration (AC50) was 1.64 µM [falling, partial curve]. Further, the AC50 under setting [1] was 1.84 µM [falling, full curve].
On to `CN(CC(=O)Nc1cccc(F)c1)C(=O)CCc1nc2sc3c(c2c(=O)[nH]1)CCCC3`, for which the cell number change is -52.6%. For the same molecule, under setting [2], the concentration at half-maximal activity (AC50) is 29.1 µM [falling, partial curve]. Moreover, the AC50 under setting [1] is 0.00517 µM [falling, full curve, poor fit].
With `CSc1cc(C)n(-c2ccccc2)c(=S)c1C(C)=O`, the cell number change was -0.103%.
In the case of `Cc1cc(/C=N/Nc2ccc([N+](=O)[O-])cn2)c(C)n1-c1ccccc1`, the cell number change was found to be 19.8%. The AC50 under setting [2] is 4.11 µM [rising, single point].
With `CCC(=O)N=c1sc2cc([N+](=O)[O-])ccc2n1CCOC`, the cell number change was 117%. For the same molecule, the AC50 under setting [2] is 29.1 µM [rising, single point].
For `O=C(O)CSC12CC3CC(C1)CC(C(=O)O)(C3)C2`, the cell number change amounted to 48.4%. Moreover, under setting [2], the AC50 was 6.51 µM [rising, partial curve]. Further, under setting [1], the AC50 was 29.1 µM [rising, single point].
Consider `CC(C)(C)n1nc(-c2ccc(F)cc2)c2c(N)ncnc21`, for which the AC50 under setting [1] was 4.11 µM [rising, single point].
Take `O=C(Nc1ccccc1)c1ccc(-c2ccc(F)cc2)s1`: the cell number change worked out at 1.65%.
In the case of `Cc1ccccc1S(=O)Cc1ccc(C(=O)NCCCN2CCCCC2)o1` (configuration not stated), under setting [1], the AC50 is 4.61 µM [falling, full curve].
Turning to `CCC(C(=O)Nc1cccc(OC)c1)n1nc(C)c2c(C)n(-c3ccccc3)nc2c1=O` (configuration not stated), the cell number change was determined as 0.59%. The AC50 under setting [1] was 6.51 µM [falling, single point].
As to `CCCCN(C(=O)CCCc1nc2ccccc2c(=O)[nH]1)c1c(N)n(CCCC)c(=O)[nH]c1=O`, the cell number change turned out to be 21.1%.
`COc1cccc(C2C(C(=O)c3ccc(C)o3)=C(O)C(=O)N2CCN2CCOCC2)c1` (configuration not stated): the cell number change is -9.19%. Also, under setting [1], the AC50 is 29.1 µM [falling, single point].
As for `Cn1cc(SCC(=O)NCC2CCCO2)c2ccccc21` (configuration not stated), the AC50 under setting [2] was 6.51 µM [rising, single point].
